The values are deposited in ChEMBL (CHEMBL3988442, “University of Dundee, Small-Polar-MMV Screening Library” (2021)).

Protein sequences, listed by entry. Tags and fused reporters are not part of them. Residues count along the entry.
UniProt P9WPC5, whole entry: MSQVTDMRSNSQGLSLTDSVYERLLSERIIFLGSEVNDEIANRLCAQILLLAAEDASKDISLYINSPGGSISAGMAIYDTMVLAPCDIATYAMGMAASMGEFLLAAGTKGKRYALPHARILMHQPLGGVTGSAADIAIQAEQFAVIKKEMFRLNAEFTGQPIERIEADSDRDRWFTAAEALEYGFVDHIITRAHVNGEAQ
UniProt P9WPC3, whole entry partner: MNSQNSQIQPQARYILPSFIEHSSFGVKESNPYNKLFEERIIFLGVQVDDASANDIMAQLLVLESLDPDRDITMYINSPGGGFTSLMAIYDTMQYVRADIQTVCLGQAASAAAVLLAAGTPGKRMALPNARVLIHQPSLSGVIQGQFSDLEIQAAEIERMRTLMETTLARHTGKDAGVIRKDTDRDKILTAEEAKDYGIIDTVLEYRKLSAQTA
UniProt P9WNZ1, whole entry: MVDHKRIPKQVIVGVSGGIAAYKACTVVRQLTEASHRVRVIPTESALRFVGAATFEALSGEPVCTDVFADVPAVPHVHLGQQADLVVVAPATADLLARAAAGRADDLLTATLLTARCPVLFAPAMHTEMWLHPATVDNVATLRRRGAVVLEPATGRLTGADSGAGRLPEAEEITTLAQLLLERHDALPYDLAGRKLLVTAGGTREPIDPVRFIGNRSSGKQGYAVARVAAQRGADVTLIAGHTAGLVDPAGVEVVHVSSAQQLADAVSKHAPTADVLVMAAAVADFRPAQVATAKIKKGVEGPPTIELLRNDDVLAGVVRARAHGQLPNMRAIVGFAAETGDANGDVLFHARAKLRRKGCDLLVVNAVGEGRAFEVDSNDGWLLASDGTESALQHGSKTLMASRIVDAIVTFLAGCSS
UniProt Q8IDJ8, 1-583: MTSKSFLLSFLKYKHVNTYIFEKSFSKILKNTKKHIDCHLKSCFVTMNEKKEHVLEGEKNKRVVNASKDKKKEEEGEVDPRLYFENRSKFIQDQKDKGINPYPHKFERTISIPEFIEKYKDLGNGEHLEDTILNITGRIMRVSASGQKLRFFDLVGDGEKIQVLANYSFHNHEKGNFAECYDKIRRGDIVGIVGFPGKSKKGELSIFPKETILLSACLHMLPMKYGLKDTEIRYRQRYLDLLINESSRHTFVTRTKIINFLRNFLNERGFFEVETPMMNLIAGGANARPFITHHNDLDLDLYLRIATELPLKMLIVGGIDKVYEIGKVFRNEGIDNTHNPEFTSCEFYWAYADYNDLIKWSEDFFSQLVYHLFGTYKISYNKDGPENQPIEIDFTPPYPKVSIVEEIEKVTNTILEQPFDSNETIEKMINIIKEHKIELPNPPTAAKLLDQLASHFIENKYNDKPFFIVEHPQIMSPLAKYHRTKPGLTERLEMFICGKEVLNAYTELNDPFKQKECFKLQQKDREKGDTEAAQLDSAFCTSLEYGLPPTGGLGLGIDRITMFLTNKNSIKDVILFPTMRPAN

Values are the deposited “Percent Effect”, in %.
The record does not define 0% and 100%; most values in the screen are far below 50% and negative numbers occur (in some assays of this library far below -100).
This is an unselected part of the compounds tested.
Two or more numbers in one place are separate tests of the same structure; such repeats can differ widely.
A dash means the value is not listed here; it may have been measured.

ClpP1P2: 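ClpP1P2, Mycobacterium tuberculosis (UniProt P9WPC5 and UniProt P9WPC3). Protease assay of ClpP1P2, read by the AMC dye that it sets free. Tested at 50 µM. Direction is inferred from only a few compounds that gave an IC50; most scored high, so higher reads as stronger inhibition. Most other retested compounds had strongly negative values. Size under these conditions: about 69,000 compounds, about 10 of them at 50% or above in at least one test.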
CoaBC: 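Enzyme assay of CoaBC with a phosphate dye (Biomol Green) read at 650 nm. Target: Coenzyme A biosynthesis protein CoaBC, Mycobacterium tuberculosis (UniProt P9WNZ1). Compounds at 30 µM. Higher reads as stronger inhibition, judged from the few compounds that gave an IC50. Most strong results did not repeat in a second test. Size under these conditions: about 67,000 compounds, about 40 of them at 50% or above in at least one test.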
PfKRS1: 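Lysine-tRNA ligase, Plasmodium falciparum 3D7 (UniProt Q8IDJ8). Enzyme assay of the cytosolic lysyl-tRNA synthetase in 384-well plates, read by luminescence. Concentration: 30 µM. Direction is inferred from only a few compounds that gave an IC50; most scored high, so higher reads as stronger inhibition. Of about 69,000 compounds tested this way, about 49 (0.071%) reached 50% or more in at least one test.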
Leishmania in macrophages: 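Cell assay of Leishmania donovani living inside macrophages; the read-out is not stated. Concentration: 30 µM. The record gives no direction; compounds that gave an IC50 in retests scored well above the rest, so higher reads as stronger inhibition. Size under these conditions: about 69,000 compounds, about 1,000 of them at 50% or above in at least one test.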

- N#Cc1ccc(OCCN2CCn3c(nnc3C3CC3)C2)cc1 | ClpP1P2: -5.838%; CoaBC: -0.2611%; PfKRS1: -0.3823%; Leishmania in macrophages: -3.929%
- [H][C@@]12COC[C@]1([H])[C@H](OCc1csc(C)n1)CN2Cc1ccccn1 | Leishmania in macrophages: 34.01%
- O=C(c1cccc(F)c1)N1C[C@@H](CN2CCCCC2)[C@@H](CO)C1 | ClpP1P2: 1.911%; CoaBC: 0%; PfKRS1: 2.825%; Leishmania in macrophages: 25.65%
- O=C(NCCc1ccc(F)cc1)C1CN(C(=O)Cn2cncn2)C1 | ClpP1P2: 11.56%; CoaBC: -0.4662%; PfKRS1: 3.204%; Leishmania in macrophages: 19.84%
- Cc1c(NC(C)C(C)C)cccc1C(=O)NCc1cnn(C)c1 (stereo not given) | ClpP1P2: -4.923%; CoaBC: 7.662%; PfKRS1: 7.36%; Leishmania in macrophages: 31.34%
- CCCn1cc(NC(=O)c2ccncc2)ccc1=O | ClpP1P2: 6.635%; CoaBC: 4.28%; PfKRS1: 36.09%; Leishmania in macrophages: 13.95%
- CC(C)(C)C(Cn1cccn1)NC(=O)c1ccco1 (stereo not given) | ClpP1P2: -1.863%; CoaBC: -0.8589%; PfKRS1: 5.011%; Leishmania in macrophages: -61.89%
- O=C1NC2(CCCN(C(=O)CCn3cccn3)C2)Oc2ccccc21 (stereo not given) | ClpP1P2: -11.72%; CoaBC: -3.942%; PfKRS1: 2.035%; Leishmania in macrophages: 49.68%
- CCn1cnnc1Cc1nc2c([nH]1)CC(c1ccc(Cl)cc1)CNC2=O (stereo not given) | ClpP1P2: 5.005%; CoaBC: -5.242%; PfKRS1: -0.2039%; Leishmania in macrophages: -8.137%
- COc1ncnc(N)c1CNCCc1ccc(-n2cccn2)cc1 | ClpP1P2: -9.306%; CoaBC: 2.265%; PfKRS1: 1.642%; Leishmania in macrophages: 47.81%
- COC(C)C(=O)N(CC(N)=O)Cc1cccc(Oc2ccccc2)c1 (stereo not given) | ClpP1P2: -4.295%; CoaBC: 0.3226%; PfKRS1: 8.244%; Leishmania in macrophages: 8.43%
- CCCS(=O)(=O)N1C[C@H]2C[C@H](C(=O)N(C)C)[C@@H](C1)O2 | ClpP1P2: -11.01%; CoaBC: 3.299%; PfKRS1: -1.37%
- CN(Cc1nnn(CC2CC2)n1)C(=O)c1ccccc1 | ClpP1P2: -8.95%; CoaBC: -0.3802%; PfKRS1: -2.488%; Leishmania in macrophages: -0.405%
- COc1cc(Br)c(CNC2CCCNC2=O)cc1OC (stereo not given) | ClpP1P2: 7.181%; CoaBC: -5.4%; PfKRS1: 3.991%
- O=C1N(CC2CC2)CCC12CCN(CC1CC1)CC2 | ClpP1P2: 1.393%; CoaBC: 6.554%; PfKRS1: 1.365%
- O=C(NCC1(O)CCSCC1)c1ccoc1 | ClpP1P2: -2.792%; CoaBC: 5.857%; PfKRS1: 27.02%; Leishmania in macrophages: -3.773%
- CS(=O)(=O)NCc1cc2n(n1)CCCN(Cc1nc3ccccc3[nH]1)C2 | ClpP1P2: -11.91%; CoaBC: 2.193%; PfKRS1: 2.086%; Leishmania in macrophages: -0.8788%
- Cc1ccnc(C2CCN(CCCOc3ccccc3F)C2)n1 (stereo not given) | ClpP1P2: -17.57%; CoaBC: -2.906%; PfKRS1: 0.3143%; Leishmania in macrophages: -43.86%
- Cc1c[nH]c(CN2CCCCC2CCn2ccnc2C)c(C)c1=O (stereo not given) | ClpP1P2: -5.186%; CoaBC: 2.948%; PfKRS1: 0.8165%; Leishmania in macrophages: -15%
- CC(=O)Nc1ccc2nc(-c3nccn3CCCN(C)C)ccc2c1 | ClpP1P2: 2.019%; CoaBC: -2.73%; PfKRS1: 3.742%; Leishmania in macrophages: 10.46%
- CC(NCCc1nccn1Cc1ccccc1)c1ccsc1 (stereo not given) | ClpP1P2: 0.4081%; CoaBC: -17.06%; PfKRS1: 1.621%; Leishmania in macrophages: 17.17%
- [H][C@@]12COC[C@]1(CNS(C)(=O)=O)CN(C(=O)c1ncccn1)C2 | Leishmania in macrophages: 1.102% and -12.22%

The first 2 entries again:

| Compound | ClpP1P2 | CoaBC | PfKRS1 | Leishmania in macrophages |
|---|---|---|---|---|
| `N#Cc1ccc(OCCN2CCn3c(nnc3C3CC3)C2)cc1` | -5.838% | -0.2611% | -0.3823% | -3.929% |
| `[H][C@@]12COC[C@]1([H])[C@H](OCc1csc(C)n1)CN2Cc1ccccn1` | - | - | - | 34.01% |